Source: the supplement of paper PMC10849652
This is one part of the list.

Sequences of proteins named here, by UniProt entry; tags and fusion partners are left off. A change or cut given only in a name is not applied to a line headed by its entry.
UniProt P25788: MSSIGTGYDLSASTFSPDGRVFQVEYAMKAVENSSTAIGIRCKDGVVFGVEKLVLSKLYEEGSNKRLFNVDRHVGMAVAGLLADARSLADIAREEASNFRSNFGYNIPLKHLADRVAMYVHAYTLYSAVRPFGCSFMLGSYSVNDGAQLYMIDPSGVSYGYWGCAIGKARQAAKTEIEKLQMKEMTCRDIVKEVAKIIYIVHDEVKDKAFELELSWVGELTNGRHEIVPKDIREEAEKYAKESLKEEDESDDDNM
UniProt P48634: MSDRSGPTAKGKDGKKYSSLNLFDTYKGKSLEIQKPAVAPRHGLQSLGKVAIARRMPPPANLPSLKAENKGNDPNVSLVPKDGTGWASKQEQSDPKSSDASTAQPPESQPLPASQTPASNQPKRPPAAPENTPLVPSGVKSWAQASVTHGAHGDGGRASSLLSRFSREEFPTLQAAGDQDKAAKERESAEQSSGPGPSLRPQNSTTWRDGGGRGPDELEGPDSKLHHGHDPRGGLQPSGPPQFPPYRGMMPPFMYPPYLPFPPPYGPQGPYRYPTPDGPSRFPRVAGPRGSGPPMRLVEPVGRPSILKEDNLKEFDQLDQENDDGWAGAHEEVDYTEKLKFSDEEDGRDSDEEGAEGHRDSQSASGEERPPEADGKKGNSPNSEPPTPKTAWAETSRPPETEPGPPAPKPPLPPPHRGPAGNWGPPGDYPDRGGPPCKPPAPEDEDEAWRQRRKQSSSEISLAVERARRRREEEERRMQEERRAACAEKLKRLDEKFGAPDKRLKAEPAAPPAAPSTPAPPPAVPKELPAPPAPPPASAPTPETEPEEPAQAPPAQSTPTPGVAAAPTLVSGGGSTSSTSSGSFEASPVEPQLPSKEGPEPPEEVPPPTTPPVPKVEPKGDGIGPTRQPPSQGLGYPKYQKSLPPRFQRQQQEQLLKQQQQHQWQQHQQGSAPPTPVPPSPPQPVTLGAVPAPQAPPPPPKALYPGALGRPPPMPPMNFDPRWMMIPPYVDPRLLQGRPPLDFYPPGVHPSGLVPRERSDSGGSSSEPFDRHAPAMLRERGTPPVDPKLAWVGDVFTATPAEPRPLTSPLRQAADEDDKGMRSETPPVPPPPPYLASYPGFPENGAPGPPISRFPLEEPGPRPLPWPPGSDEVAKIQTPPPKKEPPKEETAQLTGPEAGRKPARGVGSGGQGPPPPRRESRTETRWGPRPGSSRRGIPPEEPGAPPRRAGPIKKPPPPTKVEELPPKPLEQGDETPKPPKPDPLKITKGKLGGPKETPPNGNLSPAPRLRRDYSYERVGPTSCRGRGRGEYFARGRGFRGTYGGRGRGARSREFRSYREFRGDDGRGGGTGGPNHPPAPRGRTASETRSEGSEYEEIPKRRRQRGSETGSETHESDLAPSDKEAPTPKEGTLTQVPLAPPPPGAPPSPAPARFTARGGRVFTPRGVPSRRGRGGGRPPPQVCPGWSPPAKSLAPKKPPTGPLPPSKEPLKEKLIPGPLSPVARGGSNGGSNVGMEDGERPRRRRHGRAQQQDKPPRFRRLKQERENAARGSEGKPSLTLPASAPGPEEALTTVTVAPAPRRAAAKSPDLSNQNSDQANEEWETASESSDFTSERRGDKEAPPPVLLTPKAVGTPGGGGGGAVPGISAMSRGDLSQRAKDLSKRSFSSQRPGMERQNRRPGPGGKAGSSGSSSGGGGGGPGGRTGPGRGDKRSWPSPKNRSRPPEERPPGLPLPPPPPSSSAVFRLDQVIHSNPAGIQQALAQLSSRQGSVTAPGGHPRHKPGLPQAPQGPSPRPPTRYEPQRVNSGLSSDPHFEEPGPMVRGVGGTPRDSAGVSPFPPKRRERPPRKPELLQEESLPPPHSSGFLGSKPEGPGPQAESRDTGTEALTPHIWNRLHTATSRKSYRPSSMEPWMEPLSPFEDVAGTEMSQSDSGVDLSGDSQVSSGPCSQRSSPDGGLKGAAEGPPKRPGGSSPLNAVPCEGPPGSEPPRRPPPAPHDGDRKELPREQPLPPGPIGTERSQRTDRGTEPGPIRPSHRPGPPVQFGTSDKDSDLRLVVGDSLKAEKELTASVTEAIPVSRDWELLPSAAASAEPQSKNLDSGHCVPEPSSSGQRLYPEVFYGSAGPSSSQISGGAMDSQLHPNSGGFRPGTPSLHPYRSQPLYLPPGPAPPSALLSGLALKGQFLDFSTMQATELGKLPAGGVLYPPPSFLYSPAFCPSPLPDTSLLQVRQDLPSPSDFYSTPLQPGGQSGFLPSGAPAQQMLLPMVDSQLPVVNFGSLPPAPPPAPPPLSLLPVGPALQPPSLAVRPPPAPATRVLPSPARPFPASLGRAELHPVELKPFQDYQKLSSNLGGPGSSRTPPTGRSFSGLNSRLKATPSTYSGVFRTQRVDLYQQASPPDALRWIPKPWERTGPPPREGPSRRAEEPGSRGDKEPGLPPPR
UniProt Q92530: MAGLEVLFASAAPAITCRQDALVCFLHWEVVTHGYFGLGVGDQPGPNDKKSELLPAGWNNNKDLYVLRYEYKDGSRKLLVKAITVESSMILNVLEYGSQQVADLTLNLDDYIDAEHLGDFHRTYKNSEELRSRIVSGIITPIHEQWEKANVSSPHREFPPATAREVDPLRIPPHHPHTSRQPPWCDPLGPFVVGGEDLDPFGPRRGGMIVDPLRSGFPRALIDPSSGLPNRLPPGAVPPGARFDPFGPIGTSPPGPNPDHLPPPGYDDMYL
UniProt P62191: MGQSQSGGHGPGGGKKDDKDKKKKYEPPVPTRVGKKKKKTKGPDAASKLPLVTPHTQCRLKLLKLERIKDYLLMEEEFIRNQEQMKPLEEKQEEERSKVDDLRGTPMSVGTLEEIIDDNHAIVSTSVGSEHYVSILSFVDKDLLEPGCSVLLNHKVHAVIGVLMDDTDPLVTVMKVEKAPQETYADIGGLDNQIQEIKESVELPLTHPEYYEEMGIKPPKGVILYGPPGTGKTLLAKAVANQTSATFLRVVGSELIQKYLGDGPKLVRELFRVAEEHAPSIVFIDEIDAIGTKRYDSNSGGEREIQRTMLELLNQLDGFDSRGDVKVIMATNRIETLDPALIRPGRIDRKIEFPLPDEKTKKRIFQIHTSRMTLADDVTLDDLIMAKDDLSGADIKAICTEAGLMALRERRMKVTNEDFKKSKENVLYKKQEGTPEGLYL
UniProt Q96M27: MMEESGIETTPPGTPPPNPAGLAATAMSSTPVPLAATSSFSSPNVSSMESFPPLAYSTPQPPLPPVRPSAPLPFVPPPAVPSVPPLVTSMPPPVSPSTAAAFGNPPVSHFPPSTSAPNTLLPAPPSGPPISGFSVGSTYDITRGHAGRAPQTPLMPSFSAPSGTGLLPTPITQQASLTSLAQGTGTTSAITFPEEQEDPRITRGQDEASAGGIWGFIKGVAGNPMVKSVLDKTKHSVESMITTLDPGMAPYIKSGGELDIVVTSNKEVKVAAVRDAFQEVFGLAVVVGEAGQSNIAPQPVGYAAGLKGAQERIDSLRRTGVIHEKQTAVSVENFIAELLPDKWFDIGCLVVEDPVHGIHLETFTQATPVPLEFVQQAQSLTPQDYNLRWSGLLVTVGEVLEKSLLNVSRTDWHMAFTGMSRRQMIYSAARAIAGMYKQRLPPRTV
UniProt O00233: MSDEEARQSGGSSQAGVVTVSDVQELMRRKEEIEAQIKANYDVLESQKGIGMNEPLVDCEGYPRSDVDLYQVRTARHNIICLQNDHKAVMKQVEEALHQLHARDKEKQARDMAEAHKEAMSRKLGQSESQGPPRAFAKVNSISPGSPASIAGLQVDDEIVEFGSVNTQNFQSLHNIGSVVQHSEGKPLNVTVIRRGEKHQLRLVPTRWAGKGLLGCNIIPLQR
UniProt P29350: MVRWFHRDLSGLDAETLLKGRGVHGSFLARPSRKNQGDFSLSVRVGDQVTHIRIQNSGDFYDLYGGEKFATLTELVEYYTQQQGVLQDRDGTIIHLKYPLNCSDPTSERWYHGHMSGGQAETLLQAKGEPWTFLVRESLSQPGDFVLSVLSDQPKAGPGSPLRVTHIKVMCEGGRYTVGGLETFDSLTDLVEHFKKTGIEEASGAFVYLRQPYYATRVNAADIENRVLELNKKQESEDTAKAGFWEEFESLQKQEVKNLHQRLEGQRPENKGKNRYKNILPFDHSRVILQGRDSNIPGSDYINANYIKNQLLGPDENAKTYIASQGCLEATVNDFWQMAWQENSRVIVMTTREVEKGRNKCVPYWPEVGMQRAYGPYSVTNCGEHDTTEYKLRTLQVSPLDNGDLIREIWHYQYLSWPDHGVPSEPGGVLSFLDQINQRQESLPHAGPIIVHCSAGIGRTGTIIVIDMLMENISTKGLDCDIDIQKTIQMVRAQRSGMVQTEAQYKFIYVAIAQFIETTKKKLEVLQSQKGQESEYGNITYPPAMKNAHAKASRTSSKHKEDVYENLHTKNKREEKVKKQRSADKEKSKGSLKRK
UniProt Q5THK1: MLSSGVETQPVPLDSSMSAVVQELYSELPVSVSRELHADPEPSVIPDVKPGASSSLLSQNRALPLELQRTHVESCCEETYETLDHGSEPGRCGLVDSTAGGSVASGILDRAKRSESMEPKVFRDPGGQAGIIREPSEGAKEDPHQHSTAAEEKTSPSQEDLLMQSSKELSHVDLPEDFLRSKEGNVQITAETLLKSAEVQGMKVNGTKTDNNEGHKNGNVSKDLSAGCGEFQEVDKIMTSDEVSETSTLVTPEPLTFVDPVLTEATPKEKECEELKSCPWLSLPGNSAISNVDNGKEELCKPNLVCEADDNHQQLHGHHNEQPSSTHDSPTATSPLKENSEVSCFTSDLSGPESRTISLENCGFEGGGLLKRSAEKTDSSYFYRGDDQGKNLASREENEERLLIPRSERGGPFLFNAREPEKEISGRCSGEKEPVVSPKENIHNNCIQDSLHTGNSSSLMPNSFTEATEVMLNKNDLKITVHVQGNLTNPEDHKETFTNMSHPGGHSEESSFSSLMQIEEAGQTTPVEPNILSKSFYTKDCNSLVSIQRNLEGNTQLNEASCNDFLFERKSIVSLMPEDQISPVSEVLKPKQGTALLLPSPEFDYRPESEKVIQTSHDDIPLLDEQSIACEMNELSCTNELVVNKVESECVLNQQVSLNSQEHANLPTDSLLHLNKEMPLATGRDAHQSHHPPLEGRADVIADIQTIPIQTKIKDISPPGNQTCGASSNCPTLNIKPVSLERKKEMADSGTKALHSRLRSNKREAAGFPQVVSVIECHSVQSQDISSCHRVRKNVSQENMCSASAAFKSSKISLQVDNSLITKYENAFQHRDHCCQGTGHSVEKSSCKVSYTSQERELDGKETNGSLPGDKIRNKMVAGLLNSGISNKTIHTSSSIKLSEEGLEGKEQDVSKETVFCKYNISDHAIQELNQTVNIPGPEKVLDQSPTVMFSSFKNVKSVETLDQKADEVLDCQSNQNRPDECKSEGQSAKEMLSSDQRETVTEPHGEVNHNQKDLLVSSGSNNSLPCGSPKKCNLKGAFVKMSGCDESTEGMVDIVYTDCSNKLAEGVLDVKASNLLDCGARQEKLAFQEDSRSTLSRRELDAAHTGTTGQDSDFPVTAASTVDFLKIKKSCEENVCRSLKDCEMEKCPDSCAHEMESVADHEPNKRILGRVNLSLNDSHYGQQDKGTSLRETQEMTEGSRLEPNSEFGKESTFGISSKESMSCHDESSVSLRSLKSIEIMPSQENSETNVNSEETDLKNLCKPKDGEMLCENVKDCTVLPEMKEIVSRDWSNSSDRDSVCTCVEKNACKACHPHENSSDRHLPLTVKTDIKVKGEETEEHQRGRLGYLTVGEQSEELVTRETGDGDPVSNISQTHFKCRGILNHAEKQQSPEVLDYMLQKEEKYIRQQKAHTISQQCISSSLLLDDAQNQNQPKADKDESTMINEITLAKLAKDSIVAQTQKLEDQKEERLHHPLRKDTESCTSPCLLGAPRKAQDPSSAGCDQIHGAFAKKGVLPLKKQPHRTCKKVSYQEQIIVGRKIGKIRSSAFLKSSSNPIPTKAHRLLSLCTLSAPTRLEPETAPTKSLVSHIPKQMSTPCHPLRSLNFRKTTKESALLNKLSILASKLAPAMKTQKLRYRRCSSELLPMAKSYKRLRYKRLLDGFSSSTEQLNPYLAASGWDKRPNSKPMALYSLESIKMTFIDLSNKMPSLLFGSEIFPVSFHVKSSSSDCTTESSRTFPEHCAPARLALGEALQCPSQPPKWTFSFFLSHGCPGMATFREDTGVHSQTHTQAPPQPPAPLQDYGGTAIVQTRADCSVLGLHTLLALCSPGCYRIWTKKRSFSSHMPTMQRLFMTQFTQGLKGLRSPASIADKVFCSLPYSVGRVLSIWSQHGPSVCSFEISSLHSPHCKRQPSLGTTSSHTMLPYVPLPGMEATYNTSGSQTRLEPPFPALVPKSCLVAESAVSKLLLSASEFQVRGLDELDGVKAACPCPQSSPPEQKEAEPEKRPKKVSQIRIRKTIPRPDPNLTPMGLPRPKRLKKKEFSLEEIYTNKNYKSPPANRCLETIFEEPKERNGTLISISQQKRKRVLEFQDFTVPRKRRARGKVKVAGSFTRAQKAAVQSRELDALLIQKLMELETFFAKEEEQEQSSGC

What was measured:
Assay in all cases: log2 fold change, soluble protein after heating vs DMSO (PISA); higher = thermal stabilisation; K562 lysate, 10 uM; active = over 0.2 and 3.5 SD of the protein, either way, in both replicates (recomputed)
erlotinib = compound: C#Cc1cccc(Nc2ncnc3cc(OCCOC)c(OCCOC)cc23)c1 [erlotinib]
In short: (§1)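 Pellets of K562 cells were dounce-homogenised in PBS pH 7.4 with 1 mM MgCl2, and the crude extract was held at 1 mg/mL protein for a 30 min treatment with 10 μM compound. Aliquots were heated for 3 min over 48°C-58°C and pooled before NP-40 was added to 0.5% at 4°C. The supernatant from 21,000xg for 90 min was quantified by TMTpro 16plex LC-MS/MS with channel sums equalised. Values are reported from duplicates as log-two fold change in thermal stability relative to solvent controls.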

[1] = compound: C/C(=N\NC(=O)C1=CC(=CC=C1)S(=O)(=O)N2CCOCC2)/C3=C(C=CC(=C3)Cl)O
In short: as §1

[2] = compound: C1=CC(=CC=C1C2=NC3=C(N2)C=C(C=C3)C(=O)N)OC4=CC=C(C=C4)Cl
In short: as §1

[3] = compound: C1=CC2=C(C=CC(=C2)/C=C\3/C(=O)NC(=NCC4=CC=CS4)S3)N=C1
In short: as §1

[4] = compound: C1=CC2=NC=CN=C2C=C1/C=C/3\C(=O)NC(=O)S3
In short: as §1

[5] = compound: C1=CC=C(C=C1)C2=NC(=C(N2)C3=CC=NC=C3)C4=CC(=C(C=C4)Cl)O
In short: as §1

[6] = compound: C1=CC=C2C(=C1)C3=NNC4=CC=CC(=C43)C2=O
In short: as §1

[7] = compound: C1CCN(C1)C(=O)NC2=CC=CC(=C2)NC3=NC=C(C(=N3)NCCC4=CN=CN4)Br
In short: as §1

[8] = compound: C1CN(CCC1(CC2=CC=C(C=C2)Cl)N)C3=NC=NC4=C3C=CN4
In short: as §1

IRAK-1-4 Inhibitor I = compound: C1COCCN1CCN2C3=CC=CC=C3N=C2NC(=O)C4=CC(=CC=C4)[N+](=O)[O-] [IRAK-1-4 Inhibitor I]
In short: as §1

Measured: log2 fold change

PSMA3 (UniProt P25788)
inactive: erlotinib -0.03 | [1] 0.032 | [2] -0.016 | [3] 0.011 | [4] -0.011 | [5] 0.002 | [6] 0.032 | [7] 0.02 | [8] -0.029 | IRAK-1-4 Inhibitor I -0.025

PSMD3 (UniProt O43242)
inactive: erlotinib 0.006 | [1] -0.022 | [2] -0.02 | [3] 0.002 | [4] -0.014 | [5] -0.002 | [6] 0.023 | [7] 0.005 | [8] -0.004 | IRAK-1-4 Inhibitor I 0.008

PRRC2A (UniProt P48634)
inactive: erlotinib -0.026 | [1] -0.018 | [2] 0.073 | [3] -0.002 | [4] 0.006 | [5] -0.09 | [6] 0.014 | [7] 0.01 | [8] 0.006 | IRAK-1-4 Inhibitor I 0.026

PSMB4 (UniProt P28070)
inactive: erlotinib 0.003 | [1] -0.036 | [2] 0.007 | [3] -0.004 | [4] 0.021 | [5] 0.006 | [6] -0.024 | [7] 0.007 | [8] 0.028 | IRAK-1-4 Inhibitor I 0.017

PSMF1 (UniProt Q92530)
inactive: erlotinib -0.035 | [1] -0.052 | [2] 0.031 | [3] 0.007 | [4] -0.03 | [5] -0.049 | [6] 0.011 | [7] 0.027 | [8] 0.023 | IRAK-1-4 Inhibitor I 0.042

PTPN9 (UniProt P43378)
inactive: erlotinib 0.118 | [1] 0.171 | [2] -0.022 | [3] -0.124 | [4] 0.112 | [5] 0.214 | [6] 0.141 | [7] 0.091 | [8] 0.338 | IRAK-1-4 Inhibitor I 0.016

PSMB2 (UniProt P49721)
inactive: erlotinib 0.01 | [1] 0.037 | [2] -0.016 | [3] 0.017 | [4] 0 | [5] 0.001 | [6] -0.023 | [7] -0.021 | [8] 0.038 | IRAK-1-4 Inhibitor I 0.024

PSMC1 (UniProt P62191)
inactive: erlotinib 0.007 | [1] -0.021 | [2] -0.037 | [3] -0.004 | [4] -0.031 | [5] 0.001 | [6] -0.012 | [7] 0.002 | [8] 0 | IRAK-1-4 Inhibitor I -0.018

PRRC1 (UniProt Q96M27)
inactive: erlotinib -0.028 | [1] -0.038 | [2] 0.043 | [3] -0.008 | [4] -0.017 | [5] -0.007 | [6] -0.006 | [7] -0.013 | [8] -0.013 | IRAK-1-4 Inhibitor I 0.023

PSMD13 (UniProt Q9UNM6)
inactive: erlotinib -0.012 | [1] 0.002 | [2] -0.026 | [3] -0.003 | [4] -0.044 | [5] -0.007 | [6] 0.008 | [7] 0.013 | [8] -0.019 | IRAK-1-4 Inhibitor I -0.005

PSMD11 (UniProt O00231)
inactive: erlotinib -0.01 | [1] -0.08 | [2] -0.015 | [3] 0.009 | [4] -0.005 | [5] 0.012 | [6] 0.017 | [7] 0 | [8] -0.007 | IRAK-1-4 Inhibitor I -0.001

PSMB5 (UniProt P28074)
inactive: erlotinib 0.03 | [1] 0.024 | [2] 0.019 | [3] 0.019 | [4] 0.03 | [5] 0.022 | [6] 0.028 | [7] 0.023 | [8] 0.028 | IRAK-1-4 Inhibitor I 0.028

PSMD9 (UniProt O00233)
inactive: erlotinib -0.014 | [1] 0.011 | [2] 0.04 | [3] -0.006 | [4] 0.012 | [5] -0.004 | [6] -0.036 | [7] 0.02 | [8] 0.031 | IRAK-1-4 Inhibitor I -0.012

PUS1 (UniProt Q9Y606)
inactive: erlotinib 0.033 | [1] -0.174 | [2] 0.007 | [3] 0.01 | [4] 0.024 | [5] 0.005 | [6] -0.06 | [7] 0.016 | [8] -0.021 | IRAK-1-4 Inhibitor I 0.004

PRPF8 (UniProt Q6P2Q9)
inactive: erlotinib 0.01 | [1] 0.02 | [2] -0.017 | [3] 0.005 | [4] -0.01 | [5] 0.007 | [6] -0.018 | [7] 0.008 | [8] 0.006 | IRAK-1-4 Inhibitor I -0.011

PSME4 (UniProt Q14997)
inactive: erlotinib 0.027 | [1] 0.031 | [2] -0.008 | [3] 0.044 | [4] -0.004 | [5] 0.027 | [6] -0.029 | [7] -0.013 | [8] 0.012 | IRAK-1-4 Inhibitor I 0.056

PSMA7 (UniProt O14818)
inactive: erlotinib -0.02 | [1] 0.006 | [2] -0.004 | [3] -0.007 | [4] -0.016 | [5] 0.002 | [6] 0.018 | [7] 0.027 | [8] -0.005 | IRAK-1-4 Inhibitor I -0.006

PRPSAP2 (UniProt O60256)
inactive: erlotinib 0.008 | [1] 0.003 | [2] 0.002 | [3] -0.023 | [4] 0.003 | [5] 0.013 | [6] 0.007 | [7] -0.02 | [8] 0.01 | IRAK-1-4 Inhibitor I 0.02

PTTG1IP (UniProt P53801)
inactive: erlotinib -0.12 | [1] 0.092 | [2] -0.032 | [3] -0.016 | [4] -0.025 | [5] 0.188 | [6] -0.095 | [7] 0.039 | [8] -0.049 | IRAK-1-4 Inhibitor I -0.088

PTPN1 (UniProt P18031)
inactive: erlotinib -0.007 | [1] 0.065 | [2] -0.015 | [3] 0.025 | [4] -0.011 | [5] -0.005 | [6] -0.019 | [7] 0.027 | [8] -0.017 | IRAK-1-4 Inhibitor I 0.024

PTPN6 isoform 4 (UniProt P29350)
inactive: erlotinib 0.054 | [1] 0.097 | [2] -0.03 | [3] -0.05 | [4] 0.047 | [5] 0.04 | [6] 0.033 | [7] -0.078 | [8] -0.224 | IRAK-1-4 Inhibitor I -0.073

PTMS (UniProt P20962)
inactive: erlotinib -0.033 | [1] 0.01 | [2] 0.019 | [3] -0.01 | [4] -0.002 | [5] 0.034 | [6] 0.024 | [7] -0.026 | [8] 0 | IRAK-1-4 Inhibitor I 0.008

PSAP isoform 3 (UniProt P07602)
inactive: erlotinib -0.022 | [1] 0.044 | [2] -0.001 | [3] 0.013 | [4] 0.003 | [5] 0.003 | [6] -0.004 | [7] 0.033 | [8] 0.027 | IRAK-1-4 Inhibitor I -0.015

PTBP2 isoform 2 (UniProt Q9UKA9)
inactive: erlotinib 0.032 | [1] 0.188 | [2] 0.094 | [3] -0.037 | [4] -0.145 | [5] -0.004 | [6] 0.018 | [7] -0.193 | [8] 0.151 | IRAK-1-4 Inhibitor I 0.016

PTPMT1 (UniProt Q8WUK0)
inactive: erlotinib 0.074 | [1] 0.261 | [2] -0.358 | [3] -0.076 | [4] 0.191 | [5] 0.087 | [6] 0.049 | [7] -0.103 | [8] 0.004 | IRAK-1-4 Inhibitor I -0.071

PTGR2 (UniProt Q8N8N7)
inactive: erlotinib 0.01 | [1] 0.064 | [2] 0.001 | [3] 0.065 | [4] -0.041 | [5] 0.054 | [6] 0.016 | [7] 0.015 | [8] 0.001 | IRAK-1-4 Inhibitor I -0.035

PUSL1 (UniProt Q8N0Z8)
inactive: erlotinib 0 | [1] -0.043 | [2] 0.197 | [3] 0.001 | [4] -0.1 | [5] -0.061 | [6] 0.042 | [7] 0.021 | [8] -0.053 | IRAK-1-4 Inhibitor I 0.028

PUF60 (UniProt Q9UHX1)
inactive: erlotinib 0.001 | [1] 0.003 | [2] -0.01 | [3] 0.011 | [4] -0.018 | [5] -0.018 | [6] 0.01 | [7] 0.003 | [8] 0.003 | IRAK-1-4 Inhibitor I -0.023

PTP4A2 (UniProt Q12974)
inactive: erlotinib 0.05 | [1] -0.307 | [2] 0.011 | [3] 0.107 | [4] 0.035 | [5] 0.002 | [6] -0.028 | [7] 0.007 | [8] 0.125 | IRAK-1-4 Inhibitor I -0.014

PRR14L (UniProt Q5THK1)
inactive: erlotinib 0.112 | [1] -0.175 | [2] -0.044 | [3] 0.013 | [4] 0.003 | [5] -0.031 | [6] 0.015 | [7] 0.078 | [8] -0.025 | IRAK-1-4 Inhibitor I 0.075

Reprinted from the entries so far (two entries):
PUSL1 (UniProt Q8N0Z8)
inactive: erlotinib 0 | [1] -0.043 | [2] 0.197 | [3] 0.001 | [4] -0.1 | [5] -0.061 | [6] 0.042 | [7] 0.021 | [8] -0.053 | IRAK-1-4 Inhibitor I 0.028

PUF60 (UniProt Q9UHX1)
inactive: erlotinib 0.001 | [1] 0.003 | [2] -0.01 | [3] 0.011 | [4] -0.018 | [5] -0.018 | [6] 0.01 | [7] 0.003 | [8] 0.003 | IRAK-1-4 Inhibitor I -0.023
